Results as given in paper PMC10593234.

Protein sequences, listed by entry. Tags and fused reporters are not part of them. Lines headed by an entry give the natural chain unless they say otherwise; changes in a name come on top. Residues count along the entry.
UniProt P17839: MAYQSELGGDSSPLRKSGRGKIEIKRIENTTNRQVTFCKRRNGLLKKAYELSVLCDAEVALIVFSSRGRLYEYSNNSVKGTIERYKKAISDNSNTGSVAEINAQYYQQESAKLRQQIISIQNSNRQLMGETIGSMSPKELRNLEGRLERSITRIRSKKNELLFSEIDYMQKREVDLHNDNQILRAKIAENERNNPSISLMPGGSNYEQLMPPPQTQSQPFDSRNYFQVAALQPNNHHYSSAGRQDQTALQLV
UniProt O22456, 1-181, stated change not applied: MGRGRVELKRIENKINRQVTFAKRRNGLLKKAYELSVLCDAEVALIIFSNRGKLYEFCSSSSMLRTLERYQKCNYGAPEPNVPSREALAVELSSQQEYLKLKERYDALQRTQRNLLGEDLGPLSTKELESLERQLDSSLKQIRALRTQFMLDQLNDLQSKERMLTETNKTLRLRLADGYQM
UniProt P29381: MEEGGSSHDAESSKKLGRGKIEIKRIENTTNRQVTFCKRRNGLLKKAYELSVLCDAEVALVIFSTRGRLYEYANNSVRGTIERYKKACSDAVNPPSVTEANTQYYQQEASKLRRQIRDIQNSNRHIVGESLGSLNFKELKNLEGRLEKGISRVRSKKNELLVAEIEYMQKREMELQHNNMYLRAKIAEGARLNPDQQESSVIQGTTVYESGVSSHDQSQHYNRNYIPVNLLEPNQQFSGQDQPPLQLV
UniProt P29385: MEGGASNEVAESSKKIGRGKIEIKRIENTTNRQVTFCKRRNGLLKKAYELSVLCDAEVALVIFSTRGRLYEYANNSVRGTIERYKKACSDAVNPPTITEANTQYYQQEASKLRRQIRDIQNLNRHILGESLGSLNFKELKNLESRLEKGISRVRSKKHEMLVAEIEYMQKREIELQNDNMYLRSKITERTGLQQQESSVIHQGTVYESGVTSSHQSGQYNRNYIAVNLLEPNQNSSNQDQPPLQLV

Columns and labels:
Assay in all cases: EMSA
[1] = target: AG (Arabidopsis thaliana) (UniProt P17839); conditions: 1.6 mM EDTA, 10.3 mM HEPES (pH not stated), 1 mM DTT, 1.3 mM spermidine HCl, 33.3 ng/uL poly dI/dC, 2.5% CHAPS, 4.3% glycerol, 0.1 ng probe in 12 uL, protein translated in vitro, label: 32P (dATP Klenow fill-in)
[2] = target: SEP3 (Arabidopsis thaliana) (UniProt O22456); conditions: 1.6 mM EDTA, 10.3 mM HEPES (pH not stated), 1 mM DTT, 1.3 mM spermidine HCl, 33.3 ng/uL poly dI/dC, 2.5% CHAPS, 4.3% glycerol, 0.1 ng probe in 12 uL, protein translated in vitro, label: 32P (dATP Klenow fill-in)
[3] = target: SEP3ΔC (Arabidopsis thaliana) (UniProt O22456); conditions: 1.6 mM EDTA, 10.3 mM HEPES (pH not stated), 1 mM DTT, 1.3 mM spermidine HCl, 33.3 ng/uL poly dI/dC, 2.5% CHAPS, 4.3% glycerol, 0.1 ng probe in 12 uL, protein translated in vitro, label: 32P (dATP Klenow fill-in)
[4] = target: SHP1 (Arabidopsis thaliana) (UniProt P29381); conditions: all shifted bands eliminated; 1.6 mM EDTA, 10.3 mM HEPES (pH not stated), 1 mM DTT, 1.3 mM spermidine HCl, 33.3 ng/uL poly dI/dC, 2.5% CHAPS, 4.3% glycerol, 6 ug/uL BSA; 0.1 ng probe in 12 uL; protein translated in vitro; label: 32P (dATP Klenow fill-in)
[5] = target: SHP2 (Arabidopsis thaliana) (UniProt P29385); conditions: all shifted bands eliminated; 1.6 mM EDTA, 10.3 mM HEPES (pH not stated), 1 mM DTT, 1.3 mM spermidine HCl, 33.3 ng/uL poly dI/dC, 2.5% CHAPS, 4.3% glycerol, 6 ug/uL BSA; 0.1 ng probe in 12 uL; protein translated in vitro; label: 32P (dATP Klenow fill-in)
[6] = homodimer bands reduced significantly, 6 ug/uL BSA
[7] = similar to AtMUTE_i1, 6 ug/uL …
[8] = near identical to AtMUTE_i1, 6 ug/uL BSA
[9] = all shifted bands eliminated, 6 ug/uL BSA

## CTCGAGGATCATGCATGATAATCTTTCTAATATTGGATTTCCCAACTTATTTATGCTGTAAGAAAACAAAATGTTGTGGTCTAGA (double strand) [mCArG_2]
[1]; [6]
  binding result: binds more weakly
[2]; [6]
  binding result: binds more weakly
[3]; [6]
  binding result: binds more weakly

## CTCGAGGATCATGCATGATAATCTTTGACAGTTTTAATTTCCCAACTTACTATTTTTGGAAGAAAACAAAATGTTGTGGTCTAGA (double strand) [mCArG_1]
[1]; [7]
  binding result: binds
[2]; [7]
  binding result: binds
[3]; [7]
  binding result: binds

## CTCGAGGATCATGCATGGTAATCTTTCTAATATCGGATAGTACTCCAAACTTACTAATCTTGGAAAAATATGTTGTGCCATCTTCTAGA (double strand) [EsMUTE_i1]
[1]; [8]
  binding result: binds
[2]; [8]
  binding result: binds
[3]; [8]
  binding result: binds

## CTCGAGGATCATGCATGATAATCTTTGACAGTTTTAATTTCCCAACTTATTTATGCTGTAAGAAAACAAAATGTTGTGGTCTAGA (double strand) [mCArG_1+2]
[1]; [9]
  binding result: no binding
[2]; [9]
  binding result: no binding
[3]; [9]
  binding result: no binding
[4]
  binding result: no binding
[5]
  binding result: no binding

## CTCGAGGATCATGCATGGTTACCCTTTAATACTGGATATCCCCGACTTACTAATTTCGGAAAAATATGTTATGATCATGTCTAGA (double strand) [CrMUTE_i1]
[1]; [8]
  binding result: binds
[2]; [8]
  binding result: binds
[3]; [8]
  binding result: binds

## CTCGAGGATCATGCATGATAATCTTTCTAATATTGGATTTCCCAACTTACTATTTTTGGAAGAAAACAAAATGTTGTGGTCTAGA (double strand) [AtMUTE_i1]
[1]; 6 ug/uL BSA
  binding result: binds
[2]; 6 ug/uL BSA
  binding result: binds
[3]; 6 ug/uL BSA
  binding result: binds

The exact form of at least one protein or probe is not confirmed. A negative result means that nothing was seen under these conditions. At least one verdict was read from the data and is not stated in words by the source. For some assays here: Weaker means in comparison with the reference protein, sequence or condition of that experiment.
